No constants are given. Whether binding was seen depends on the method and setting. Some results given as binding are weak or reduced against the parent protein; the word gives no strength.
Target: PKCα of RFPEC lysate (rat) (UniProt P05696)
Test: immunoprecipitation of RFPEC lysate with syndecan-4 cytoplasmic tail-specific antiserum, immunoblot with polyclonal antibody to PKCα

binding: binds
B1: syndecan-4 cytoplasmic tail immunoprecipitated from RFPEC lysate (receptor, rat, UniProt P34901 148-202, looked up)
chain: TEVLAALIVGGVVGILFAVFLILLLVYRMKKKDEGSYDLGKKPIYKKAPTNEFYA

From patent US6815187
